Laboratory results taken from patent publication US20250283871A1, “COMPOSITIONS AND METHODS FOR MODULATING THE INTERACTION BETWEEN SS18-SSX FUSION ONCOPROTEIN AND NUCLEOSOMES” (Dana-Farber Cancer Institute, Inc., priority 2020, published 2025).

Test system: BAF complex subunits and histone proteins
Test: Mass spectrometry proteomics of purified HA-SS18 WT and HA-SS18-SSX1 complexes (Tables 5A-5E)
Set-up: species or system human
Conditions: HEK-293T
[1] = HA-SS18SSX1 purification, NE (soluble nuclear extract) fraction, peptides per identified protein
[2] = HA-SS18WT_NE_peptides: HA-SS18 WT complexes purified from nuclear extract (NE), label = protein identified (Gene Symbol)
[3] = HA-SS18WT_NE_peptides: proteins co-purified with HA-SS18 WT from nuclear extract (NE)
[4] = HA-SS18WT_CHR_peptides: protein identified in HA-SS18 WT BAF complex purification from nuclease-treated solubilized chromatin (CHR)

B1: ABCB10 (protein, UniProt Q9NRK6 106-738, looked up)
ATP-binding cassette …: AGPGAPRLPRARFPGGPAAAAWAGDEAWRRGPAAPPGDKGRLRPAAAGLPEARKLLGLAYPERRRLAAAVGFLTMSSVISMSAPFFLGKIIDVIYTNPTVDYSDNLTRLCLGLSAVFLCGAAANAIRVYLMQTSGQRIVNRLRTSLFSSILRQEVAFFDKTRTGELINRLSSDTALLGRSVTENLSDGLRAGAQASVGISMMFFVSPNLATFVLSVVPPVSIIAVIYGRYLRKLTKVTQDSLAQATQLAEERIGNVRTVRAFGKEMTEIEKYASKVDHVMQLARKEAFARAGFFGATGLSGNLIVLSVLYKGGLLMGSAHMTVGELSSFLMYAFWVGISIGGLSSFYSELMKGLGAGGRLWELLEREPKLPFNEGVILNEKSFQGALEFKNVHFAYPARPEVPIFQDFSLSIPSGSVTALVGPSGSGKSTVLSLLLRLYDPASGTISLDGHDIRQLNPVWLRSKIGTVSQEPILFSCSIAENIAYGADDPSSVTAEEIQRVAEVANAVAFIRNFPQGFNTVVGEKGVLLSGGQKQRIAIARALLKNPKILLLDEATSALDAENEYLVQEALDRLMDGRTVLVIAHRLSTIKNANMVAVLDQGKITEYGKHEELLSKPNGIYRKLMNKQSFISA
Total (total peptides) [1]: 4 | Unique (unique peptides) [1]: 4 | Total (peptides) [2]: 5 | Unique (peptides) [2]: 5

B2: NTPCR (protein, UniProt Q9BSD7 2-190, looked up)
Cancer-related …: ARHVFLTGPPGVGKTTLIHKASEVLKSSGVPVDGFYTEEVRQGGRRIGFDVVTLSGTRGPLSRVGLEPPPGKRECRVGQYVVDLTSFEQLALPVLRNADCSSGPGQRVCVIDEIGKMELFSQLFIQAVRQTLSTPGTIILGTIPVPKGKPLALVEEIRNRKDVKVFNVTKENRNHLLPDIVTCVQSSRK
Total (total peptides) [1]: 4 | Unique (unique peptides) [1]: 4 | Total (peptides) [2]: 5 | Unique (peptides) [2]: 5

B3: NIPSNAP1 (protein, UniProt Q9BPW8 36-284, looked up)
Protein NipSnap homolog 1: SKDNEGSWFRSLFVHKVDPRKDAHSTLLSKKETSNLYKIQFHNVKPEYLDAYNSLTEAVLPKLHLDEDYPCSLVGNWNTWYGEQDQAVHLWRFSGGYPALMDCMNKLKNNKEYLEFRRERSQMLLSRRNQLLLEFSFWNEPQPRMGPNIYELRTYKLKPGTMIEWGNNWARAIKYRQENQEAVGGFFSQIGELYVVHHLWAYKDLQSREETRNAAWRKRGWDENVYYTVPLVRHMESRIMIPLKISPLQ
Total (total peptides) [1]: 4 | Unique (unique peptides) [1]: 4 | Total (peptides) [2]: 6 | Unique (peptides) [2]: 6

B4: L2HGDH (protein, UniProt Q9H9P8 52-463, looked up)
L-2-hydroxyglutarate …: VIVGGGIVGLASARALILRHPSLSIGVLEKEKDLAVHQTGHNSGVIHSGIYYKPESLKAKLCVQGAALLYEYCQQKGISYKQCGKLIVAVEQEEIPRLQALYEKGLQNGVPGLRLIQQEDIKKKEPYCRGLMAIDCPHTGIVDYRQVALSFAQDFQEAGGSVLTNFEVKGIEMAKESPSRSIDGMQYPIVIKNTKGEEIRCQYVVTCAGLYSDRISELSGCTPDPRIVPFRGDYLLLKPEKCYLVKGNIYPVPDSRFPFLGVHFTPRMDGSIWLGPNAVLAFKREGYRPFDFSATDVMDIIINSGLIKLASQNFSYGVTEMYKACFLGATVKYLQKFIPEITISDILRGPAGVRAQALDRDGNLVEDFVFDAGVGDIGNRILHVRNAPSPAATSSIAISGMIADEVQQRFEL
Total (total peptides) [1]: 4 | Unique (unique peptides) [1]: 4 | Total (peptides) [2]: 5 | Unique (peptides) [2]: 4

B5: AASS (protein, UniProt Q9UDR5 28-926, looked up)
Alpha-aminoadipic …: VRREDVNAWERRAPLAPKHIKGITNLGYKVLIQPSNRRAIHDKDYVKAGGILQEDISEACLILGVKRPPEEKLMSRKTYAFFSHTIKAQEANMGLLDEILKQEIRLIDYEKMVDHRGVRVVAFGQWAGVAGMINILHGMGLRLLALGHHTPFMHIGMAHNYRNSSQAVQAVRDAGYEISLGLMPKSIGPLTFVFTGTGNVSKGAQAIFNELPCEYVEPHELKEVSQTGDLRKVYGTVLSRHHHLVRKTDAVYDPAEYDKHPERYISRFNTDIAPYTTCLINGIYWEQNTPRLLTRQDAQSLLAPGKFSPAGVEGCPALPHKLVAICDISADTGGSIEFMTECTTIEHPFCMYDADQHIIHDSVEGSGILMCSIDNLPAQLPIEATECFGDMLYPYVEEMILSDATQPLESQNFSPVVRDAVITSNGTLPDKYKYIQTLRESRERAQSLSMGTRRKVLVLGSGYISEPVLEYLSRDGNIEITVGSDMKNQIEQLGKKYNINPVSMDICKQEEKLGFLVAKQDLVISLLPYVLHPLVAKACITNKVNMVTASYITPALKELEKSVEDAGITIIGELGLDPGLDHMLAMETIDKAKEVGATIESYISYCGGLPAPEHSNNPLRYKFSWSPVGVLMNVMQSATYLLDGKVVNVAGGISFLDAVTSMDFFPGLNLEGYPNRDSTKYAEIYGISSAHTLLRGTLRYKGYMKALNGFVKLGLINREALPAFRPEANPLTWKQLLCDLVGISPSSEHDVLKEAVLKKLGGDNTQLEAAEWLGLLGDEQVPQAESILDALSKHLVMKLSYGPEEKDMIVMRDSFGIRHPSGHLEHKTIDLVAYGDINGFSAMAKTVGLPTAMAAKMLLDGEIGAKGLMGPFSKEIYGPILERIKAEGIIYTTQSTIKP
Total (total peptides) [1]: 4 | Unique (unique peptides) [1]: 4 | Total (peptides) [2]: 5 | Unique (peptides) [2]: 5

B6: SLC25A22 (protein, UniProt Q9H936 1-323, looked up)
Mitochondrial glutamate …: MADKQISLPAKLINGGIAGLIGVTCVFPIDLAKTRLQNQQNGQRVYTSMSDCLIKTVRSEGYFGMYRGAAVNLTLVTPEKAIKLAANDFFRHQLSKDGQKLTLLKEMLAGCGAGTCQVIVTTPMEMLKIQLQDAGRIAAQRKILAAQGQLSAQGGAQPSVEAPAAPRPTATQLTRDLLRSRGIAGLYKGLGATLLRDVPFSVVYFPLFANLNQLGRPASEEKSPFYVSFLAGCVAGSAAAVAVNPCDVVKTRLQSLQRGVNEDTYSGILDCARKILRHEGPSAFLKGAYCRALVIAPLFGIAQVVYFLGIAESLLGLLQDPQA
Total (total peptides) [1]: 4 | Unique (unique peptides) [1]: 4 | Total (peptides) [2]: 3 | Unique (peptides) [2]: 3

B7: PDHA1 (protein, UniProt P08559 30-390, looked up)
Pyruvate dehydrogenase E1 …: FANDATFEIKKCDLHRLEEGPPVTTVLTREDGLKYYRMMQTVRRMELKADQLYKQKIIRGFCHLCDGQEACCVGLEAGINPTDHLITAYRAHGFTFTRGLSVREILAELTGRKGGCAKGKGGSMHMYAKNFYGGNGIVGAQVPLGAGIALACKYNGKDEVCLTLYGDGAANQGQIFEAYNMAALWKLPCIFICENNRYGMGTSVERAAASTDYYKRGDFIPGLRVDGMDILCVREATRFAAAYCRSGKGPILMELQTYRYHGHSMSDPGVSYRTREEIQEVRSKSDPIMLLKDRMVNSNLASVEELKEIDVEVRKEIEDAAQFATADPEPPLEELGYHIYSSDPPFEVRGANQWIKFKSVS
Total (total peptides) [1]: 4 | Unique (unique peptides) [1]: 4 | Total (peptides) [3]: 1 | Unique (peptides) [3]: 1

B8: AAAS (protein, UniProt Q9NRG9 2-546, looked up)
Aladin: CSLGLFPPPPPRGQVTLYEHNNELVTGSSYESPPPDFRGQWINLPVLQLTKDPLKTPGRLDHGTRTAFIHHREQVWKRCINIWRDVGLFGVLNEIANSEEEVFEWVKTASGWALALCRWASSLHGSLFPHLSLRSEDLIAEFAQVTNWSSCCLRVFAWHPHTNKFAVALLDDSVRVYNASSTIVPSLKHRLQRNVASLAWKPLSASVLAVACQSCILIWTLDPTSLSTRPSSGCAQVLSHPGHTPVTSLAWAPSGGRLLSASPVDAAIRVWDVSTETCVPLPWFRGGGVTNLLWSPDGSKILATTPSAVFRVWEAQMWTCERWPTLSGRCQTGCWSPDGSRLLFTVLGEPLIYSLSFPERCGEGKGCVGGAKSATIVADLSETTIQTPDGEERLGGEAHSMVWDPSGERLAVLMKGKPRVQDGKPVILLFRTRNSPVFELLPCGIIQGEPGAQPQLITFHPSFNKGALLSVGWSTGRIAHIPLYFVNAQFPRFSPVLGRAQEPPAGGGGSIHDLPLFTETSPTSAPWDPLPGPPPVLPHSPHSHL
Total (total peptides) [1]: 4 | Unique (unique peptides) [1]: 4 | Total (total peptides) [4]: 2 | Unique (unique peptides) [4]: 2 | Total (peptides) [3]: 2 | Unique (peptides) [3]: 2

B9: NLRX1 (protein, UniProt Q86UT6 87-975, looked up)
NLR family member X1: AEWFSRLPREERQFGPTFALDTVHVDPVIRESTPDELLRPPAELALEHQPPQAGLPPLALSQLFNPDACGRRVQTVVLYGTVGTGKSTLVRKMVLDWCYGRLPAFELLIPFSCEDLSSLGPAPASLCQLVAQRYTPLKEVLPLMAAAGSHLLFVLHGLEHLNLDFRLAGTGLCSDPEEPQEPAAIIVNLLRKYMLPQASILVTTRPSAIGRIPSKYVGRYGEICGFSDTNLQKLYFQLRLNQPYCGYAVGGSGVSATPAQRDHLVQMLSRNLEGHHQIAAACFLPSYCWLVCATLHFLHAPTPAGQTLTSIYTSFLRLNFSGETLDSTDPSNLSLMAYAARTMGKLAYEGVSSRKTYFSEEDVCGCLEAGIRTEEEFQLLHIFRRDALRFFLAPCVEPGRAGTFVFTVPAMQEYLAALYIVLGLRKTTLQKVGKEVAELVGRVGEDVSLVLGIMAKLLPLRALPLLFNLIKVVPRVFGRMVGKSREAVAQAMVLEMFREEDYYNDDVLDQMGASILGVEGPRRHPDEPPEDEVFELFPMFMGGLLSAHNRAVLAQLGCPIKNLDALENAQAIKKKLGKLGRQVLPPSELLDHLFFHYEFQNQRFSAEVLSSLRQLNLAGVRMTPVKCTVVAAVLGSGRHALDEVNLASCQLDPAGLRTLLPVFLRARKLGLQLNSLGPEACKDLRDLLLHDQCQITTLRLSNNPLTAAGVAVLMEGLAGNTSVTHLSLLHTGLGDEGLELLAAQLDRNRQLQELNVAYNGAGDTAALALARAAREHPSLELLHLYFNELSSEGRQVLRDLGGAAEGGARVVVSLTEGTAVSEYWSVILSEVQRNLNSWDRARVQRHLELLLRDLEDSRGATLNPWRKAQLLRVEGEVRALLEQLGSSGS
Total (total peptides) [1]: 4 | Unique (unique peptides) [1]: 4 | Total (peptides) [2]: 3 | Unique (peptides) [2]: 3

B10: VANGL2 (protein, UniProt Q9ULK5 1-521, looked up)
Vang-like protein 2: MDTESQYSGYSYKSGHSRSSRKHRDRRDRHRSKSRDGGRGDKSVTIQAPGEPLLDNESTRGDERDDNWGETTTVVTGTSEHSISHDDLTRIAKDMEDSVPLDCSRHLGVAAGATLALLSFLTPLAFLLLPPLLWREELEPCGTACEGLFISVAFKLLILLLGSWALFFRRPKASLPRVFVLRALLMVLVFLLVVSYWLFYGVRILDARERSYQGVVQFAVSLVDALLFVHYLAVVLLELRQLQPQFTLKVVRSTDGASRFYNVGHLSIQRVAVWILEKYYHDFPVYNPALLNLPKSVLAKKVSGFKVYSLGEENSTNNSTGQSRAVIAAAARRRDNSHNEYYYEEAEHERRVRKRRARLVVAVEEAFTHIKRLQEEEQKNPREVMDPREAAQAIFASMARAMQKYLRTTKQQPYHTMESILQHLEFCITHDMTPKAFLERYLAAGPTIQYHKERWLAKQWTLVSEEPVTNGLKDGIVFLLKRQDFSLVVSTKKVPFFKLSEEFVDPKSHKFVMRLQSETSV
Total (total peptides) [1]: 4 | Unique (unique peptides) [1]: 4
